These are yes or no findings as the source states them, for the method shown. Binding seen in cells or lysates may run through a third protein. A yes stands for co-enrichment or nearness to the bait. Other partners may have been found.
Target: T1, C9ORF135 protein (chromosome 9 open reading frame 135), isoform 1 (human (endogenous in hESCs)) (UniProt Q5VTT2)
T1 sequence: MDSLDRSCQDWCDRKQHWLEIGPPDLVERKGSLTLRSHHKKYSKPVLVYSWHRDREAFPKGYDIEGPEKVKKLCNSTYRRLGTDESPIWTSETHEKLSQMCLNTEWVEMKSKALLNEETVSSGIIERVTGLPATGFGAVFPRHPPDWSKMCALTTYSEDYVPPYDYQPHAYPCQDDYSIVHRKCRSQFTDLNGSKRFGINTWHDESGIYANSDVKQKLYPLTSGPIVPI
Assay: affinity purification with mass spectrometry; hESC lysate precipitated with anti-C9ORF135 antibody (control: normal IgG); SDS-PAGE, silver staining; three bands present only in the antibody pulldown excised and analysed by MS (LTQ Orbitrap XL)

The chains behind the UniProt entries cited, without tags or fusion partners.
UniProt P35579: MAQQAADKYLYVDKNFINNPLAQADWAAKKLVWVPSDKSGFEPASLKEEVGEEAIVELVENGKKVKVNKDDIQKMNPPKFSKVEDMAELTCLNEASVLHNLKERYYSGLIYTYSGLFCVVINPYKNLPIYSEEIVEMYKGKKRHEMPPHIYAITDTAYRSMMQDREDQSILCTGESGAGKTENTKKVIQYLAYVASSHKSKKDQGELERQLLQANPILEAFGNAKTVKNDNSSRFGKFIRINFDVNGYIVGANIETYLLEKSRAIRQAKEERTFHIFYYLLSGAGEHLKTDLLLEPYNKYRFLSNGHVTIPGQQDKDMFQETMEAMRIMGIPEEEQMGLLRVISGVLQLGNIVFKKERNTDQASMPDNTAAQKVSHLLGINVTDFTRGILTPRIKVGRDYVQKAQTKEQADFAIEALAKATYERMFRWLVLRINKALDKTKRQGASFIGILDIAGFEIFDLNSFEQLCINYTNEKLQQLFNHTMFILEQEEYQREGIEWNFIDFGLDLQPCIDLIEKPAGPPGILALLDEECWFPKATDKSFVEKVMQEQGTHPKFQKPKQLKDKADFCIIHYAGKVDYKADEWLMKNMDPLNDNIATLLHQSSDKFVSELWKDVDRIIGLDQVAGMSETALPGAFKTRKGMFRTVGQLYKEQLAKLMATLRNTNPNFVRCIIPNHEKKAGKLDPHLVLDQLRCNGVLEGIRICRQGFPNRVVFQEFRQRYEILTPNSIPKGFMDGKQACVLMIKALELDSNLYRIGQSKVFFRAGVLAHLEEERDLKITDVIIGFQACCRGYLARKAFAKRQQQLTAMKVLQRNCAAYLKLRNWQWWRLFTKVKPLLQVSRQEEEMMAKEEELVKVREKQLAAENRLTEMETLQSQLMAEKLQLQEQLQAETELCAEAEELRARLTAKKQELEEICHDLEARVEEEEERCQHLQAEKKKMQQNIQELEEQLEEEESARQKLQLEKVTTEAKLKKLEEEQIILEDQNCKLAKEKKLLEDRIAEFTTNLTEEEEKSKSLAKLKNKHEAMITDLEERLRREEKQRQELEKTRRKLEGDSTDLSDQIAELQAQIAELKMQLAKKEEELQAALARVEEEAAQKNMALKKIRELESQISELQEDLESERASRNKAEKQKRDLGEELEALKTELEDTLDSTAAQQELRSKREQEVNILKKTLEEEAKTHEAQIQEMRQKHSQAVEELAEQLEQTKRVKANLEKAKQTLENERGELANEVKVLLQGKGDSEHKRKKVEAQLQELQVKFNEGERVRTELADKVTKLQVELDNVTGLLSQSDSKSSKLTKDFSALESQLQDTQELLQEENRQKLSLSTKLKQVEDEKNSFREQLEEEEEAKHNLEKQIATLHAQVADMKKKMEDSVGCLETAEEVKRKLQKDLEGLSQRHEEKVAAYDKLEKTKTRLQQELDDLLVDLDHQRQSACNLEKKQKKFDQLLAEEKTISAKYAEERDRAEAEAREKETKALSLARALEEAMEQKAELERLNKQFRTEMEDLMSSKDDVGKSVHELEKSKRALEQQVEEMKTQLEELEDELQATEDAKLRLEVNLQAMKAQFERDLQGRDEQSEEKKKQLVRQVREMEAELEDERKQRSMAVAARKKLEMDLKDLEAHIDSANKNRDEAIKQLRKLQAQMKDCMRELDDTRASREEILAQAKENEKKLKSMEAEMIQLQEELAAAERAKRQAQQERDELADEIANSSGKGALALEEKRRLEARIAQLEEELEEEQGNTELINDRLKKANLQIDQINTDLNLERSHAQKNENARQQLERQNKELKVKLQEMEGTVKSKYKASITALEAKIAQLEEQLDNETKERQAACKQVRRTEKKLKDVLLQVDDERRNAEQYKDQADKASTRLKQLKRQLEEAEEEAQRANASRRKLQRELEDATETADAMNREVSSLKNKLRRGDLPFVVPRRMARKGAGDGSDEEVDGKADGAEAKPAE

“myosin-9 (MYH9, myosin-IIA) (from UniProt P35579 1-1960)” was tested, and the binding was “binds”.
